Laboratory results: the supplement of paper PMC4604168 (melanoma cell lines)
The list shows a part of the results. Many values rest on one well or one pass, so single values are uncertain.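 The apoptosis fraction was the count of cleaved-PARP antibody-stained nuclei relative to all DNA-stained nuclei, imaged in 1,536-well plates. Screening doses were set so most cells survived, and baseline and induced cleaved-PARP levels vary greatly across cell lines.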

What follows are compounds tested on G361 (assay: cleaved PARP positive nuclei fraction relative to DMSO control; melanoma cells; higher = more apoptosis). Details: library dose: low library concentration; 72 h.

SMILES	cleaved PARP positive nuclei fraction
C=C(c1ccc(C(=O)O)cc1)c1cc2c(cc1C)C(C)(C)CCC2(C)C [Bexarotene] + CCCCCCCCCCCC1=C(O)C(=O)C=C(O)C1=O [Embelin] (first compound 2 µM, partner dose 1.2 µM)	90.9%
O=C(O)c1ccc2c(c1)nc(Nc1cccc(Cl)c1)c1ccncc12 + Oc1nc(-c2ccc(C(F)(F)F)cc2)nc2c1CSCC2 [XAV939] (first compound 0.4 µM, partner dose 2 µM)	80.6%
C=C(c1ccc(C(=O)O)cc1)c1cc2c(cc1C)C(C)(C)CCC2(C)C [Bexarotene] + COC(=O)c1sccc1S(=O)(=O)Nc1ccc(Nc2ccccc2)cc1OC [GSK0660] (first compound 2 µM, partner dose 1 µM)	184%
Nc1nc(F)nc2c1ncn2[C@@H]1O[C@H](CO)[C@@H](O)[C@@H]1O [fludarabine] + COc1ccc2c(c1)CCC1C2CCC2(C)C(NCCCCCCN3C(=O)C=CC3=O)CCC12 [U73122] (first compound 0.2 µM, partner dose 0.4 µM)	87.3%
O=C(O)[C@@H]1[O][Sb](=[O])([O][Sb]2(=[O])[O][C@H]([C@H](O)CO)[C@H](O)[C@H](C(=O)O)[O]2)[O][C@H]([C@H](O)CO)[C@@H]1O (some centres undefined) [stibogluconate] + O=C(O)C(=O)Nc1sc2c(c1C(=O)O)CCNC2 [TCS401] (first compound 2 µM, partner dose 1.66667 µM)	44.9%
C=C(c1ccc(C(=O)O)cc1)c1cc2c(cc1C)C(C)(C)CCC2(C)C [Bexarotene] + Cc1cc([N+](=O)[O-])ccc1NS(=O)(=O)c1cc(Cl)ccc1Cl [FH535] (first compound 2 µM, partner dose 1 µM)	170%
C=C(c1ccc(C(=O)O)cc1)c1cc2c(cc1C)C(C)(C)CCC2(C)C [Bexarotene] + COc1ccc(COc2ccc(Cc3cnc(N)nc3N)cc2OC)cc1 [GW2580] (first compound 2 µM, partner dose 1 µM)	53%
Nc1nc(F)nc2c1ncn2[C@@H]1O[C@H](CO)[C@@H](O)[C@@H]1O [fludarabine] + O=C(Nc1ccccc1)c1cc([N+](=O)[O-])ccc1Cl [GW9662] (first compound 0.2 µM, partner dose 2 µM)	68.6%
CC(C)C[C@H](NC(=O)[C@H](Cc1ccccc1)NC(=O)c1cnccn1)B(O)O [Bortezomib] + COC(=O)c1sccc1S(=O)(=O)Nc1ccc(Nc2ccccc2)cc1OC [GSK0660] (first compound 0.001 µM, partner dose 1 µM)	3890%
CN1CCN(c2ccc3nc(-c4c(N)c5c(F)cccc5[nH]c4=O)[nH]c3c2)CC1 [Dovitinib] + COc1ccc(COc2ccc(Cc3cnc(N)nc3N)cc2OC)cc1 [GW2580] (first compound 0.1 µM, partner dose 1 µM)	85.2%
Cn1c(=O)n(-c2ccc(C(C)(C)C#N)cc2)c2c3cc(-c4cnc5ccccc5c4)ccc3ncc21 + Cc1cc([N+](=O)[O-])ccc1NS(=O)(=O)c1cc(Cl)ccc1Cl [FH535] (first compound 0.004 µM, partner dose 1 µM)	186%
CCCS(=O)(=O)Nc1ccc(F)c(C(=O)c2c[nH]c3ncc(Cl)cc23)c1F + Oc1nc(-c2ccc(C(F)(F)F)cc2)nc2c1CSCC2 [XAV939] (first compound 0.08 µM, partner dose 2 µM)	83.2%
Nc1nc(F)nc2c1ncn2[C@@H]1O[C@H](CO)[C@@H](O)[C@@H]1O [fludarabine] + COc1ccc(-c2ccc3c(N4CCOCC4)nc(N4C[C@@H](C)O[C@@H](C)C4)nc3n2)cc1CO [KU0063794] (first compound 0.2 µM, partner dose 0.02 µM)	71.2%
CS(=O)(=O)CCNCc1ccc(-c2ccc3ncnc(Nc4ccc(OCc5cccc(F)c5)c(Cl)c4)c3c2)o1 [lapatinib] + O=C(Nc1ccccc1)c1cc([N+](=O)[O-])ccc1Cl [GW9662] (first compound 0.8 µM, partner dose 2 µM)	89%
C=C(c1ccc(C(=O)O)cc1)c1cc2c(cc1C)C(C)(C)CCC2(C)C [Bexarotene] + CCc1ccc(CCOc2ccc(CC3SC(=O)NC3=O)cc2)nc1 [pioglitazone] (first compound 2 µM, partner dose 2 µM)	131%
C=C(c1ccc(C(=O)O)cc1)c1cc2c(cc1C)C(C)(C)CCC2(C)C [Bexarotene] + c1cc(-c2cnn3cc(-c4ccc(OCCN5CCCCC5)cc4)cnc23)ccn1 [Dorsomorphin] (first compound 2 µM, partner dose 0.4 µM)	193%
CS(=O)(=O)CCNCc1ccc(-c2ccc3ncnc(Nc4ccc(OCc5cccc(F)c5)c(Cl)c4)c3c2)o1 [lapatinib] + COc1cc(N2CCC(N3CCN(C)CC3)CC2)ccc1Nc1ncc(Cl)c(Nc2ccccc2S(=O)(=O)C(C)C)n1 [NVP-TAE684] (first compound 0.8 µM, partner dose 0.08 µM)	76.4%
CNC(=O)c1cc(Oc2ccc(NC(=O)Nc3ccc(Cl)c(C(F)(F)F)c3)cc2)ccn1 [sorafenib] + CCN(CC)CCCCNc1ncc2cc(-c3cc(OC)cc(OC)c3)c(NC(=O)NC(C)(C)C)nc2n1 [PD173074] (first compound 0.4 µM, partner dose 0.1 µM)	53.6%
CO[C@H]1C[C@@H]2CC[C@@H](C)[C@@](O)(O2)C(=O)C(=O)N2CCCC[C@H]2C(=O)O[C@H]([C@H](C)C[C@@H]2CC[C@@H](OCCO)[C@H](OC)C2)CC(=O)[C@H](C)/C=C(\C)[C@@H](O)[C@@H](OC)C(=O)[C@H](C)C[C@H](C)/C=C/C=C/C=C/1C [everolimus] + O=C1NC(=O)/C(=C/c2ccc(-c3ccc(F)cc3O)o2)S1 [AS252424] (first compound 0.02 µM, partner dose 1 µM)	93.7%

Reprinted at random: 2 records from the list.
SMILES	cleaved PARP positive nuclei fraction
Nc1nc(F)nc2c1ncn2[C@@H]1O[C@H](CO)[C@@H](O)[C@@H]1O [fludarabine] + COc1ccc(-c2ccc3c(N4CCOCC4)nc(N4C[C@@H](C)O[C@@H](C)C4)nc3n2)cc1CO [KU0063794] (first compound 0.2 µM, partner dose 0.02 µM)	71.2%
CNC(=O)c1cc(Oc2ccc(NC(=O)Nc3ccc(Cl)c(C(F)(F)F)c3)cc2)ccn1 [sorafenib] + CCN(CC)CCCCNc1ncc2cc(-c3cc(OC)cc(OC)c3)c(NC(=O)NC(C)(C)C)nc2n1 [PD173074] (first compound 0.4 µM, partner dose 0.1 µM)	53.6%
